Results are given in words; binding and its absence hold for the method and conditions named. Binding seen in cells or lysates may run through a third protein. Some results given as binding are weak or reduced against the parent protein; the word gives no strength.
Molecular target: T1, FANCA protein (human (endogenous in HEK 293T)) (UniProt O15360)
T1 sequence: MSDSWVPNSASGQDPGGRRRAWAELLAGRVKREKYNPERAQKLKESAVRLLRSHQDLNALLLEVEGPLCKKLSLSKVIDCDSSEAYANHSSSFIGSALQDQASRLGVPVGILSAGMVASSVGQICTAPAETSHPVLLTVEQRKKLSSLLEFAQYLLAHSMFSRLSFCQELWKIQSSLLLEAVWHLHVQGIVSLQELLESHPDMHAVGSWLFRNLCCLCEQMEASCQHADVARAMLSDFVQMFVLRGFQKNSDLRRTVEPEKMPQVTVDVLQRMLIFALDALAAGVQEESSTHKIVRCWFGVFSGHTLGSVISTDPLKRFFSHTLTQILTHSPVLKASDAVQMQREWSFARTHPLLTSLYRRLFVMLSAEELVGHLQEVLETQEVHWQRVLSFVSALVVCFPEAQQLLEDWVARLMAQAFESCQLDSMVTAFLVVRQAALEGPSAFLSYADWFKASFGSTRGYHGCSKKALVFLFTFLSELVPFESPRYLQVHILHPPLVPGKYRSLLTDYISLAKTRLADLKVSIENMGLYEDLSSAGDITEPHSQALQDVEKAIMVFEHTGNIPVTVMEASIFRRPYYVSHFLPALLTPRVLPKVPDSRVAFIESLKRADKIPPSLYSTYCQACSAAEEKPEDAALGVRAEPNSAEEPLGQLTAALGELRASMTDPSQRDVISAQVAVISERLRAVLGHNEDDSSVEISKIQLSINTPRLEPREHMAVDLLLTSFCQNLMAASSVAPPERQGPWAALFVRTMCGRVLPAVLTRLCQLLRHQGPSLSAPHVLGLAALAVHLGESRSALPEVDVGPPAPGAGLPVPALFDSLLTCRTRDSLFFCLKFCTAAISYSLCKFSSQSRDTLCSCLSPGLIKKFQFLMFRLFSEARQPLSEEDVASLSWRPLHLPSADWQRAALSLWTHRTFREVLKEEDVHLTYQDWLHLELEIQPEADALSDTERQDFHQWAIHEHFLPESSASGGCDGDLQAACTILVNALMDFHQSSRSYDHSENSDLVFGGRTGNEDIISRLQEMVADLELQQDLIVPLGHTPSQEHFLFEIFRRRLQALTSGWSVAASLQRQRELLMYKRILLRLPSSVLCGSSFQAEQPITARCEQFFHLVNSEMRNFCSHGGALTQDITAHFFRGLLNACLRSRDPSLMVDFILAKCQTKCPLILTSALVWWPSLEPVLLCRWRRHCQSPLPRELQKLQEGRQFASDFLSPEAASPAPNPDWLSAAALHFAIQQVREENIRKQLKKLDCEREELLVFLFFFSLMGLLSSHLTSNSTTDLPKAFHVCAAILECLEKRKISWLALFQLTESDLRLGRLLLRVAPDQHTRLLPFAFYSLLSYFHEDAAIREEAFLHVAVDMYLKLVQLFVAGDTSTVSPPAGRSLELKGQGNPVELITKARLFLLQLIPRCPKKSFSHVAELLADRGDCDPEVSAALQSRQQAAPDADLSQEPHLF
Assay: co-IP; HEK 293T cells treated with 200 ng/mL MMC for 16 h; lysis buffer 50 mM Tris-Cl pH 7.4, 150 mM NaCl, 0.3% Igepal CA-630, 0.2% Triton X-100; precleared lysates precipitated with anti-FANCA antibody and protein A-agarose at 4 °C; Aurora A kinase detected by immunoblot

B1: Aurora A kinase (enzyme, UniProt O14965 1-403)
chain: MDRSKENCISGPVKATAPVGGPKRVLVTQQFPCQNPLPVNSGQAQRVLCPSNSSQRIPLQAQKLVSSHKPVQNQKQKQLQATSVPHPVSRPLNNTQKSKQPLPSAPENNPEEELASKQKNEESKKRQWALEDFEIGRPLGKGKFGNVYLAREKQSKFILALKVLFKAQLEKAGVEHQLRREVEIQSHLRHPNILRLYGYFHDATRVYLILEYAPLGTVYRELQKLSKFDEQRTATYITELANALSYCHSKRVIHRDIKPENLLLGSAGELKIADFGWSVHAPSSRRTTLCGTLDYLPPEMIEGRMHDEKVDLWSLGVLCYEFLVGKPPFEANTYQETYKRISRVEFTFPDFVTEGARDLISRLLKHNPSQRPMLREVLEHPWITANSSKPSNCQNKESASKQS
- binding: binds

Reference: publication PMC4932458
